Results are given in words; binding and its absence hold for the method and conditions named.
Assays:
[1] = molecular target: T1, C. elegans FBF-2 RBD+CT (residues 164–632) (C. elegans) (UniProt Q09312); assay: condition: LST-1 100–400 μM in the syringe, FBF-2 10–30 μM in the cell; ITC; LST-1 (100–400 μM) titrated from the syringe into the cell containing FBF-2 (10–30 μM); 20 °C; 20 mM HEPES pH 7.4, 150 mM NaCl, 0.5 mM TCEP; no RNA; one-site model; two technical replicates; both purified
T1 sequence: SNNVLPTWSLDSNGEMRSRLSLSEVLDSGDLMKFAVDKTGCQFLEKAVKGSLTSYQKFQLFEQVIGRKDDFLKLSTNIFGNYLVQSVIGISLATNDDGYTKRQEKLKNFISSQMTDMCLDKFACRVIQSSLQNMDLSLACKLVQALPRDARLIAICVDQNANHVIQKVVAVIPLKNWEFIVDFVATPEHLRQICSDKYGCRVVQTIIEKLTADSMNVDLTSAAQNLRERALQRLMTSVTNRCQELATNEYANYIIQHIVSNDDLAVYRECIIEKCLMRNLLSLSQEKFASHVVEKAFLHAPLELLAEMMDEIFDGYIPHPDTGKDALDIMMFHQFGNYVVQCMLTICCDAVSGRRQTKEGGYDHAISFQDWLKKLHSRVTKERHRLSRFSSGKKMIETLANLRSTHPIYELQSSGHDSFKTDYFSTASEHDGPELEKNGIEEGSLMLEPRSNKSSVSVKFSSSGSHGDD

[2] = molecular target: T2, FBF-2 RBD protein (residue 164–575) (C. elegans) (UniProt Q09312); assay: as above
T2 sequence: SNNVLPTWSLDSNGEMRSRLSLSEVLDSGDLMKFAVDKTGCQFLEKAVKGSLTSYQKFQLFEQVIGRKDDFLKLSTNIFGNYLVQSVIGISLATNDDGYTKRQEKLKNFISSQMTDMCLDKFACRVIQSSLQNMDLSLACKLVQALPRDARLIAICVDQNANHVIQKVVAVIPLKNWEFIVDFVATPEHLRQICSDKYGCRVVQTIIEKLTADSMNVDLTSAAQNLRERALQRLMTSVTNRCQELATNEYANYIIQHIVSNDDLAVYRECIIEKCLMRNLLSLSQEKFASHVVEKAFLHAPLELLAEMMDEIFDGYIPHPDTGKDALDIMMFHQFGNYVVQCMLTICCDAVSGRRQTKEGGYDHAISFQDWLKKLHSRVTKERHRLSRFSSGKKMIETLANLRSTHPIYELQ

binding [1]: no binding
binding [2]: no binding
B1: LST-1^19-98(A^mB^m) (domain or fragment, UniProt P91820 19-98)
chain: STIAYSKSQHEAPAQLAQLRSEIKPLIPLNQPSNFWESSQDSGVLSSLSSSPQQRSGLRSQALHATAIEKNKRVRAMIPQ
